{"source": "PubChem BioAssay AID1347423", "about": "(Functional Genomics Laboratory (NCATS/FGL), 2020)", "note": "In all, about 52,000 sequences went through this assay and about 210 (0.4%) were called active.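 The calls were made as follows: active = gene whose silencing raises cell survival under the drug, median off-target-corrected z-score across its silencing RNAs 2 or more; inactive = the rest.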 Some of the results follow.", "data": [{"assay": "Resistance to Poly (ADP-Ribose) Polymerase inhibitor: Gene Identification via Genome-wide siRNA Screen", "settings": "mouse BRCA2 R2336H ES cells, olaparib, CellTiter-Glo viability; active compounds read high", "method_in_brief": "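Genome-wide siRNA screen (3 siRNAs/gene, 20 nM) in mouse ES cells carrying hypomorphic BRCA2 R2336H; olaparib 500 nM added 48 h post-transfection, CellTiter-Glo viability 72 h later. Normalized to plate-median negative control; MAD z-scores, gene median, seed-adjusted.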", "values": [{"sequence": "GGACACCUUUCAUCAAAUUTT against Nat3", "z-score": "inactive: 1.31"}, {"sequence": "GUGGCAAAUGCAAAUGCAATT against Fxyd3", "z-score": "inactive: 0.922"}, {"sequence": "CCCAUUUGAGUGUACAUAATT against 3110001A13Rik", "z-score": "inactive: 1.64"}, {"sequence": "GGAGUGGGAUGAAAUUACATT against Slc35f4", "z-score": "inactive: 0.314"}, {"sequence": "GGAUGACUGCAUCUCUCUGTT against 2410166I05Rik", "z-score": "inactive: -0.258"}, {"sequence": "GGAGCUCAUGGAAAUCUGUTT against Pfpl", "z-score": "inactive: 0.301"}, {"sequence": "GGUCCCUCUAGCUACAAAUTT against A630008I04", "z-score": "inactive: -0.165"}, {"sequence": "GGCAACUAGCCCUAAAGGCTT against C78915", "z-score": "inactive: 1.05"}, {"sequence": "GGACAUCUCCUUGAUCUUGTT against Slc1a5", "z-score": "inactive: 1.22"}, {"sequence": "CGUUGUCAACUUUAUUUGCTT against Sara1", "z-score": "inactive: 0.911"}, {"sequence": "GCCAAUGGAGGGUUGGAUUTT against Thrap5", "z-score": "inactive: -1.59"}, {"sequence": "CCGUCUUCACCUGAUACAGTT against 1700013N18Rik", "z-score": "inactive: -1.24"}, {"sequence": "GGAUGACGGUGUCAUGUGCTT against D230007K08Rik", "z-score": "inactive: 0.0439"}, {"sequence": "GGCUUGUUGAGCCCUUACATT against 4930412M03Rik", "z-score": "inactive: 0.188"}, {"sequence": "GCGAUAUUUCAAGAGAAGCTT against Evc2", "z-score": "inactive: 0.167"}, {"sequence": "CGAUCUUCCAAACCCUCUUTT against Dhh", "z-score": "inactive: -0.652"}, {"sequence": "GCCUGAUUGAUAAAGAAAUTT against Ppp1r14c", "z-score": "inactive: -0.0886"}, {"sequence": "GGUUAGCUACAGAUAUAUUTT against Evi5", "z-score": "inactive: -1.01"}, {"sequence": "CCGAAGGAUUGAAGAGCCUTT against Trnt1", "z-score": "inactive: 0.239"}, {"sequence": "GGCCACCAUCAAUUUAUAUTT against Ripply1", "z-score": "inactive: -0.64"}, {"sequence": "GCAGAAUUGAAGCUGGAAUTT against Stag1", "z-score": "inactive: 1.41"}, {"sequence": "GGCAUCAAAAAGCAGACAATT against 4933404M02Rik", "z-score": "inactive: -1.1"}, {"sequence": "AUUGGACUUCUACAUGGCUTT against Olfr207", "z-score": "inactive: -1.92"}, {"sequence": "GCUCCAGCUCUGCUUUAAGTT against 4931440P22Rik", "z-score": "inactive: -0.219"}, {"sequence": "GGGAGAUGAUAAUAUGUAUTT against Pogk", "z-score": "inactive: -1.05"}, {"sequence": "GAGGUACUUACAGGUUGUCTT against Mageb1", "z-score": "inactive: -0.93"}, {"sequence": "GGAGAUGAAUGUUUACAACTT against Sema6a", "z-score": "inactive: -0.477"}, {"sequence": "GGCAGAUUGUGAAAAAACUTT against Slc9a6", "z-score": "inactive: 1.17"}, {"sequence": "GGGAAUGACAGAAAUAUAATT against Golph2", "z-score": "inactive: 0.57"}, {"sequence": "CCAGAUUUAGGUUUCUUUCTT against 2210412K09Rik", "z-score": "inactive: 0.344"}, {"sequence": "GGGAAAGAAUUGGAUUGAATT against B230342M21Rik", "z-score": "inactive: 0.314"}, {"sequence": "GGCGUAUGCAGAAUUCUACTT against Cox6c", "z-score": "inactive: 0.615"}, {"sequence": "GGAGGUUAUGAUUCUUCACTT against BC032265", "z-score": "inactive: 1.3"}, {"sequence": "GGAUAGUUUGGUAAUGAAATT against Cds1", "z-score": "inactive: 1.81"}, {"sequence": "GCUUCAUCGAACAAGUCGCTT against Pcbd", "z-score": "inactive: -0.414"}, {"sequence": "GCACCAUCGACUAAUCAAATT against 1700029J07Rik", "z-score": "inactive: 0.709"}, {"sequence": "GCAAGCAGAGAUGUUACAUTT against Olfr1284", "z-score": "inactive: 0.528"}, {"sequence": "GGUUCCUACACGAAAGGAUTT against Eif2b4", "z-score": "inactive: -0.829"}, {"sequence": "GGUUCUCCAGUUUGUCCGATT against Evx2", "z-score": "inactive: 0.341"}, {"sequence": "GGAGAUAAAGGCUCUCUUCTT against 2510006D16Rik", "z-score": "inactive: -1.06"}, {"sequence": "CCGUGGCGUAUGUGAUCAATT against Map3k5", "z-score": "inactive: -1.86"}, {"sequence": "GCAACAGGUUAGCGAAACCTT against Bid3", "z-score": "active: 0.43"}, {"sequence": "GGCUCUCUGUCUGGAAAAGTT against Cspg2", "z-score": "inactive: -0.157"}, {"sequence": "CCUUUUUUAUAUCCACUCATT against BC060615", "z-score": "inactive: 0.82"}, {"sequence": "GGUGCCAUUGACAUUUAAUTT against Zcchc6", "z-score": "inactive: 0.417"}, {"sequence": "GGAGCUGAAGCAAAGACAGTT against 2410005K17Rik", "z-score": "inactive: -2.36"}, {"sequence": "GGACUUUCCAGUAAGGAAATT against Mapk8ip", "z-score": "inactive: -0.0305"}, {"sequence": "GGCUUCAAACAUUUACUGGTT against 2010009L17Rik", "z-score": "inactive: 1.76"}, {"sequence": "GGAAUGCUUAGUGAAAUUUTT against Elys", "z-score": "inactive: -0.57"}, {"sequence": "GGUUUACAAGUUUCUAAGCTT against B230113M03Rik", "z-score": "inactive: 0.539"}, {"sequence": "GGCUUCAUUUCUUGAUGAUTT against Cenpc1", "z-score": "inactive: -0.896"}, {"sequence": "GCUAACAUUUUAAUGGCCCTT against Pnoc", "z-score": "inactive: 0.192"}, {"sequence": "GGGAUCAAUUGAGUGUAAUTT against Slc16a10", "z-score": "inactive: 0.886"}, {"sequence": "GGAGAAGAUUGUCAACAUUTT against Cyp1a2", "z-score": "inactive: 0.918"}, {"sequence": "GGCCUGAGGACAUUGAAUATT against Nat5", "z-score": "inactive: 0.56"}, {"sequence": "GGCCGAAGCAUCUUCAAGATT against BC037651", "z-score": "inactive: 0.251"}, {"sequence": "GGCUAUGGAAACCACCACATT against Nrg3", "z-score": "inactive: -1.92"}, {"sequence": "GGGAGGAAUUUGAUAAGAUTT against Cpsf5", "z-score": "inactive: 2.02"}, {"sequence": "GGAAAGAUUGGAUUUGAAGTT against Zfp318", "z-score": "inactive: 0.103"}, {"sequence": "CCUAUUCCUAACCACAAGATT against Ppap2c", "z-score": "inactive: -0.178"}, {"sequence": "CGCGCUGGUACAAUCUCCUTT against BC037006", "z-score": "inactive: 0.659"}, {"sequence": "CCCUAUUGAUUCAACUUGGTT against 4930542N07Rik", "z-score": "inactive: 2.88"}, {"sequence": "CGUGAACAAUUACUGAGCCTT against Wars2", "z-score": "inactive: -0.337"}, {"sequence": "CCAUUUGAACAGUCCGUCUTT against 8030451K01Rik", "z-score": "inactive: 1.48"}, {"sequence": "GCCCUUCGUGAUGAAGAAUTT against B4galt3", "z-score": "inactive: 0.149"}, {"sequence": "CCCACCUGGCUUUUAUUGATT against Olfr1042", "z-score": "inactive: 0.31"}]}]}
